Reference: patent publication US20070134261A1, “Effectors of innate immunity” (priority 2001, published 2007)
At least one peptide structure holds a part that was inferred or is arguable (an end, a ring closure or a residue). No end group written: not given here.

Test system: A549 epithelial cells
Assay: Human Operon arrays (PRHU04-S1) of A549 cells treated with peptide alone (Tables 31-37, 53)
Conditions: peptide 50 μg/ml, 4 h, Table 36

Sequence: KQKLFAKMLMSALKKKTLVTTPLAGK [ID 45]
- AB014615 fibroblast growth factor 8, expression Ratio ID#:ctrl: 22.7
- AB015349 unknown, expression Ratio ID#:ctrl: 2.7
- AB017016 brain-specific protein p25 alpha, expression Ratio ID#:ctrl: 3.1
- AB022847 unknown, expression Ratio ID#:ctrl: 6.2
- AB033080 cell cycle progression 8 protein, expression Ratio ID#:ctrl: 6.9
- AB037744 unknown, expression Ratio ID#:ctrl: 3.1
- AC005162 probable carboxypeptidase precursor, expression Ratio ID#:ctrl: 3.2
- AF025840 polymerase epsilon 2, expression Ratio ID#:ctrl: 4.3
- AF045941 sciellin, expression Ratio ID#:ctrl: 3.4
- AF049703 E74-like factor 5, expression Ratio ID#:ctrl: 5.4
- AF053712 TNF superfamily_member 11, expression Ratio ID#:ctrl: 16.6
- AF061836 Ras association domain family 1, expression Ratio ID#:ctrl: 6.8
- AF083898 neuro-oncological ventral antigen 2, expression Ratio ID#:ctrl: 3.5
- AF093670 peroxisomal biogenesis factor, expression Ratio ID#:ctrl: 2.9
- AF105424 myosin heavy polypeptide-like, expression Ratio ID#:ctrl: 5.3
- AF131806 unknown, expression Ratio ID#:ctrl: 3.2
- AF132495 CGI-133 protein, expression Ratio ID#:ctrl: 5.1
- AF233442 ubiquitin specific protease, expression Ratio ID#:ctrl: 3.9
- AF240467 TLR-7, expression Ratio ID#:ctrl: 4.9
- AJ009771 ariadne_Drosophila_homolog of, expression Ratio ID#:ctrl: 20.3
- AJ012008 dimethylarginine dimethylaminohydrolase 2, expression Ratio ID#:ctrl: 2.6
- AK000102 unknown, expression Ratio ID#:ctrl: 2.8
- AK000358 microfibrillar-associated protein 3, expression Ratio ID#:ctrl: 5.2
- AK001135 Sec23-interacting protein p125, expression Ratio ID#:ctrl: 5.2
- AK001864 unknown, expression Ratio ID#:ctrl: 2.6
- AL035397 unknown, expression Ratio ID#:ctrl: 9.3
- AL050139 unknown, expression Ratio ID#:ctrl: 2.8
- AL133114 DKFZP586P2421 protein, expression Ratio ID#:ctrl: 4.3
- AL133612 unknown, expression Ratio ID#:ctrl: 2.5
- AL133654 unknown, expression Ratio ID#:ctrl: 2.6
- AL137502 unknown, expression Ratio ID#:ctrl: 5.3
- AL137513 unknown, expression Ratio ID#:ctrl: 2.3
- D38449 putative G protein coupled receptor, expression Ratio ID#:ctrl: 10.4
- J04599 biglycan, expression Ratio ID#:ctrl: 2.8
- L75847 zinc finger protein, expression Ratio ID#:ctrl: 3.9
- M26665 histatin 3, expression Ratio ID#:ctrl: 4.5
- M28825 CD1A antigen, expression Ratio ID#:ctrl: 4.4
- NM_00696 zinc finger protein, expression Ratio ID#:ctrl: 20.5
- NM_004909 taxol resistance associated gene 3, expression Ratio ID#:ctrl: 5.6
- U05227 GTP-binding protein, expression Ratio ID#:ctrl: 2.8
- U27330 fucosyltransferase 5, expression Ratio ID#:ctrl: 19.3
- U27655 regulator of G-protein signaling 3, expression Ratio ID#:ctrl: 2.4
- U35246 vacuolar protein sorting 45A, expression Ratio ID#:ctrl: 2.2
- U66669 3-hydroxyisobutyryl-Coenzyme A hydrolase, expression Ratio ID#:ctrl: 2.1
- U70426 regulator of G-protein signaling 16, expression Ratio ID#:ctrl: 12.2
- U75330 neural cell adhesion molecule 2, expression Ratio ID#:ctrl: 7.8
- U80770 unknown, expression Ratio ID#:ctrl: 6.8
- U90908 unknown, expression Ratio ID#:ctrl: 11.2
- U92980 unknown, expression Ratio ID#:ctrl: 3.1
- V00522 MHC class II DR beta 3, expression Ratio ID#:ctrl: 3.0
- X05978 cystatin A, expression Ratio ID#:ctrl: 3.6
- X55740 CD73, expression Ratio ID#:ctrl: 2.1
- X61177 IL-5R alpha, expression Ratio ID#:ctrl: 3.6
- X74837 mannosidase_alpha class 1A, expression Ratio ID#:ctrl: 20.8
- X82153 cathepsin K, expression Ratio ID#:ctrl: 4.6
- X97267 protein tyrosine phosphatase, expression Ratio ID#:ctrl: 8.3
- Z11933 POU domain class 3 TF 2, expression Ratio ID#:ctrl: 8.2

Sequence: KTKKFAKMLMMALKKVVSTAKPLAILS [ID 42]
- AB014615 fibroblast growth factor 8, expression Ratio ID#:ctrl: 3.5
- AB015349 unknown, expression Ratio ID#:ctrl: 2.8
- AB017016 brain-specific protein p25 alpha, expression Ratio ID#:ctrl: 2.6
- AB022847 unknown, expression Ratio ID#:ctrl: 6.9
- AB033080 cell cycle progression 8 protein, expression Ratio ID#:ctrl: 2.2
- AB037744 unknown, expression Ratio ID#:ctrl: 2.9
- AC005162 probable carboxypeptidase precursor, expression Ratio ID#:ctrl: 3.4
- AF025840 polymerase epsilon 2, expression Ratio ID#:ctrl: 2.0
- AF045941 sciellin, expression Ratio ID#:ctrl: 7.5
- AF049703 E74-like factor 5, expression Ratio ID#:ctrl: 6.0
- AF053712 TNF superfamily_member 11, expression Ratio ID#:ctrl: 9.3
- AF061836 Ras association domain family 1, expression Ratio ID#:ctrl: 2.5
- AF083898 neuro-oncological ventral antigen 2, expression Ratio ID#:ctrl: 3.8
- AF093670 peroxisomal biogenesis factor, expression Ratio ID#:ctrl: 2.6
- AF105424 myosin heavy polypeptide-like, expression Ratio ID#:ctrl: 3.3
- AF131806 unknown, expression Ratio ID#:ctrl: 3.4
- AF132495 CGI-133 protein, expression Ratio ID#:ctrl: 2.2
- AF233442 ubiquitin specific protease, expression Ratio ID#:ctrl: 4.7
- AF240467 TLR-7, expression Ratio ID#:ctrl: 13.3
- AJ009771 ariadne_Drosophila_homolog of, expression Ratio ID#:ctrl: 17.6
- AJ012008 dimethylarginine dimethylaminohydrolase 2, expression Ratio ID#:ctrl: 3.3
- AK000102 unknown, expression Ratio ID#:ctrl: 5.3
- AK000358 microfibrillar-associated protein 3, expression Ratio ID#:ctrl: 2.0
- AK001135 Sec23-interacting protein p125, expression Ratio ID#:ctrl: 2.6
- AK001864 unknown, expression Ratio ID#:ctrl: 3.7
- AL035397 unknown, expression Ratio ID#:ctrl: 2.8
- AL050139 unknown, expression Ratio ID#:ctrl: 2.4
- AL133114 DKFZP586P2421 protein, expression Ratio ID#:ctrl: 3.4
- AL133612 unknown, expression Ratio ID#:ctrl: 3.4
- AL133654 unknown, expression Ratio ID#:ctrl: 2.1
- AL137502 unknown, expression Ratio ID#:ctrl: 4.9
- AL137513 unknown, expression Ratio ID#:ctrl: 3.2
- D38449 putative G protein coupled receptor, expression Ratio ID#:ctrl: 6.7
- J04599 biglycan, expression Ratio ID#:ctrl: 3.7
- L75847 zinc finger protein, expression Ratio ID#:ctrl: 3.0
- M26665 histatin 3, expression Ratio ID#:ctrl: 3.5
- M28825 CD1A antigen, expression Ratio ID#:ctrl: 2.6
- NM_00696 zinc finger protein, expression Ratio ID#:ctrl: 12.6
- NM_004909 taxol resistance associated gene 3, expression Ratio ID#:ctrl: 2.9
- U05227 GTP-binding protein, expression Ratio ID#:ctrl: 3.1
- U27330 fucosyltransferase 5, expression Ratio ID#:ctrl: 2.1
- U27655 regulator of G-protein signaling 3, expression Ratio ID#:ctrl: 4.9
- U35246 vacuolar protein sorting 45A, expression Ratio ID#:ctrl: 2.8
- U66669 3-hydroxyisobutyryl-Coenzyme A hydrolase, expression Ratio ID#:ctrl: 3.5
- U70426 regulator of G-protein signaling 16, expression Ratio ID#:ctrl: 3.0
- U75330 neural cell adhesion molecule 2, expression Ratio ID#:ctrl: 9.6
- U80770 unknown, expression Ratio ID#:ctrl: 3.8
- U90908 unknown, expression Ratio ID#:ctrl: 7.7
- U92980 unknown, expression Ratio ID#:ctrl: 4.1
- V00522 MHC class II DR beta 3, expression Ratio ID#:ctrl: 3.9
- X05978 cystatin A, expression Ratio ID#:ctrl: 4.8
- X55740 CD73, expression Ratio ID#:ctrl: 3.3
- X61177 IL-5R alpha, expression Ratio ID#:ctrl: 4.4
- X74837 mannosidase_alpha class 1A, expression Ratio ID#:ctrl: 18.4
- X82153 cathepsin K, expression Ratio ID#:ctrl: 5.2
- X97267 protein tyrosine phosphatase, expression Ratio ID#:ctrl: 9.3
- Z11933 POU domain class 3 TF 2, expression Ratio ID#:ctrl: 2.5
